Data from article PMC5133869.
No constants are given. Whether binding was seen depends on the method and setting. Binding seen in cells or lysates may run through a third protein.

Protein sequences, listed by entry. Tags and fused reporters are not part of them.
UniProt Q9Y6D6: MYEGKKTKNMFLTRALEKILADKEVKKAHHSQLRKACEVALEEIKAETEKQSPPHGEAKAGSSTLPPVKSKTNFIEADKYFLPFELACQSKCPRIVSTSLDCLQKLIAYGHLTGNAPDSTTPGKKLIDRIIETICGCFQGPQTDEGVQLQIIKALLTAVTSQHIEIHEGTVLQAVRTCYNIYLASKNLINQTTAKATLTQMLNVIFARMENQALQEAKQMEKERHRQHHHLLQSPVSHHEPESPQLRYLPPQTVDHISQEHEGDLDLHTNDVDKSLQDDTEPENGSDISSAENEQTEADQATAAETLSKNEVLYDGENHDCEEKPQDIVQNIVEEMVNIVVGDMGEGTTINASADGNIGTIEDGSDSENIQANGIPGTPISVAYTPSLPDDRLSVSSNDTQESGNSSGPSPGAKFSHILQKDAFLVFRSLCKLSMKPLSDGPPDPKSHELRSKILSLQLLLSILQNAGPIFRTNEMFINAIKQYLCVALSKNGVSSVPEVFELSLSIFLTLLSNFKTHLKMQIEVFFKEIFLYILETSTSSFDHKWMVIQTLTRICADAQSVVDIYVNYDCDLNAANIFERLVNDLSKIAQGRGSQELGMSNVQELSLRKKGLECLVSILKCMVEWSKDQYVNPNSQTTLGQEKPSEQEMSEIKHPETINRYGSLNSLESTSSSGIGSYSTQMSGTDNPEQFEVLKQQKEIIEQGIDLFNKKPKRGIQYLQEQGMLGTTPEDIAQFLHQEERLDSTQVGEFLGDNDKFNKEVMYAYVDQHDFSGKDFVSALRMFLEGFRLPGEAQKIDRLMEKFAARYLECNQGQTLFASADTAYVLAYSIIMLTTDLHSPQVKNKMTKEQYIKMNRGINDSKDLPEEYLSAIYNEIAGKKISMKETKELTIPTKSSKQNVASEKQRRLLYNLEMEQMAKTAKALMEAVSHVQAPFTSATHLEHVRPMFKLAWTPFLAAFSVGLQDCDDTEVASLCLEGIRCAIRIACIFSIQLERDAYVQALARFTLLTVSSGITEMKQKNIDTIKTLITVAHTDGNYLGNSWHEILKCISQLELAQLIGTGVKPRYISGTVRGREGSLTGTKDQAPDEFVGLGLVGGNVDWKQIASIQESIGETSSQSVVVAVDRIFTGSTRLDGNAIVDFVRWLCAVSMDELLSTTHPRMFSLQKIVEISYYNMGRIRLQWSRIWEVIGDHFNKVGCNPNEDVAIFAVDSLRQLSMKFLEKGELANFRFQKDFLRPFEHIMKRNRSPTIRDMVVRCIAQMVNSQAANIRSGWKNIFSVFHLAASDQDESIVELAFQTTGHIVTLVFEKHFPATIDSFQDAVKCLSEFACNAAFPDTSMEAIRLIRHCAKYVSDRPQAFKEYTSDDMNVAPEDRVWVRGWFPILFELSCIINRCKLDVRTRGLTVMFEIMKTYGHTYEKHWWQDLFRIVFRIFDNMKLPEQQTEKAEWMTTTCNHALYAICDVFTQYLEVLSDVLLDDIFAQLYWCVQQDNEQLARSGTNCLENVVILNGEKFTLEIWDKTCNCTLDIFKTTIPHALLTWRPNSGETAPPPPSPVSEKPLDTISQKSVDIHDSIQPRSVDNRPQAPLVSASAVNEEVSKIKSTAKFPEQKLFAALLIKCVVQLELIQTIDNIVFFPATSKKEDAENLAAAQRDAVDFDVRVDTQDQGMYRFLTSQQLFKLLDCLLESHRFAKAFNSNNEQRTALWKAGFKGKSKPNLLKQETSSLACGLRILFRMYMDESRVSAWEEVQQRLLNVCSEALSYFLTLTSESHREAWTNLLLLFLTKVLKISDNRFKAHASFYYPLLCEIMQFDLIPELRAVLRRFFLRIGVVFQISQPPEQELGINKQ

Target: T1, Tumor necrosis factor receptor-associated factor 2 (human (endogenous in HT1080)) (UniProt Q12933)
T1 sequence: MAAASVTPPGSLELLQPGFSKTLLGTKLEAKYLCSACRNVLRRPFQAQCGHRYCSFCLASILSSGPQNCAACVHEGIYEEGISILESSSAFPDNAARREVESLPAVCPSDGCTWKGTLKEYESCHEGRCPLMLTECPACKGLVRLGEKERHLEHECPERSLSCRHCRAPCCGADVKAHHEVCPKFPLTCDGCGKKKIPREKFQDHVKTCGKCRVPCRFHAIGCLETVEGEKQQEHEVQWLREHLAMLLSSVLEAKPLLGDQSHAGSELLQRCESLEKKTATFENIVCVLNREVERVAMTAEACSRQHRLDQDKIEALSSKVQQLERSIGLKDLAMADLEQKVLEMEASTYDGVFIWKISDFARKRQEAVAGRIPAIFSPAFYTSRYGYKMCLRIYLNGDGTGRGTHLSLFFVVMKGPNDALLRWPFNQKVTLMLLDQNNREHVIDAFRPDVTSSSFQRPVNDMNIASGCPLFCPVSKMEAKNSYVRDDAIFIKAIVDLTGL
Assay: co-IP; endogenous proteins; HT1080 cell extracts immunoprecipitated with anti-TRAF2 antibody, then immunoblotting; cells treated with 50 ng/mL TNF-α for the indicated periods (Figure 5A) or, after control siRNA, with TNF-α and cycloheximide for 4 h (Figure 6C)

“Brefeldin A-inhibited guanine nucleotide-exchange factor 1 (from UniProt Q9Y6D6 1-1849)” was tested, and the binding was “no binding”.
